Assay results reported in article PMC7862700.
The entries are a selection whose mix differs from that of the whole data set. For part of these data: At the low end of the ranking the order means little. The list shows a part of the results. For part of these data: Construct or isoform of the protein are uncertain.

By UniProt entry, the sequences of proteins in these tests, tags left out. Where a name states a change or a piece, a line headed by the entry shows the natural chain unless it says otherwise.
UniProt P32519: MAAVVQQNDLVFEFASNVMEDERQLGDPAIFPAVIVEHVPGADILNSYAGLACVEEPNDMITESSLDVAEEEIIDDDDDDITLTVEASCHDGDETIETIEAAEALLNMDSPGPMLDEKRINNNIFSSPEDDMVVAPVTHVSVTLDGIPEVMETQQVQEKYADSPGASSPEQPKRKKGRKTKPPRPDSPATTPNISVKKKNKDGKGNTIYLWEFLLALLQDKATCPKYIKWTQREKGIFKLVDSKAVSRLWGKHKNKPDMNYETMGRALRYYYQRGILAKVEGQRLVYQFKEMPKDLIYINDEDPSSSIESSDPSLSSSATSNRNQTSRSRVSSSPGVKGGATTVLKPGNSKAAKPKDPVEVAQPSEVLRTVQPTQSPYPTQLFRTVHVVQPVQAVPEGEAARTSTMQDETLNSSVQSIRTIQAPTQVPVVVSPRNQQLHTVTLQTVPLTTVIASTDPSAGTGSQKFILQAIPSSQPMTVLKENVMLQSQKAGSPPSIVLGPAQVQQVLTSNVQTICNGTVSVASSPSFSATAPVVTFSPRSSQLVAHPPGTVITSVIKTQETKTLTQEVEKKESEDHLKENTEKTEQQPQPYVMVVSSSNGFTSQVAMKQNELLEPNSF
UniProt P50549: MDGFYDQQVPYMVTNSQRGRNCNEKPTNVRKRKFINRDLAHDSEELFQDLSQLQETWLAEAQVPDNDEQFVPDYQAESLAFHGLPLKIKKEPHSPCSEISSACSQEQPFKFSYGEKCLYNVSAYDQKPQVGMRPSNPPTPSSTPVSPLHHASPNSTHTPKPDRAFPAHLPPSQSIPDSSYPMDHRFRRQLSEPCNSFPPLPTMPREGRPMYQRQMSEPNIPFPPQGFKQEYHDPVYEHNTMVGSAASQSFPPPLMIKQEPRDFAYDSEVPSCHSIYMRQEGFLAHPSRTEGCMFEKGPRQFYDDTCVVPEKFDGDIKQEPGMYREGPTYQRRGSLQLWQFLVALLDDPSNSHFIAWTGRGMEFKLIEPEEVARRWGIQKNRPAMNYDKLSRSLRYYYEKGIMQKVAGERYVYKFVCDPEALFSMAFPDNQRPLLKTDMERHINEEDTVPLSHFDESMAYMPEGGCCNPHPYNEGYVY

Tests used:
Experiment in all cases: DAPPL (digital affinity profiling via proximity ligation, sequencing)
Details in all cases: 10 mM Tris-HCl pH 7.5, 50 mM NaCl, 1 mM DTT, 4% glycerol, room temperature, 30 min; GST-TFs on glutathione beads, 16-mer random dsDNA library, 0.1% …; high values mean tight binding; double strand, one strand shown; scale: fold enrichment (6-mer frequency, TF over GST control)
ERG = target: T1, ERG (UniProt P11308)
T1 sequence: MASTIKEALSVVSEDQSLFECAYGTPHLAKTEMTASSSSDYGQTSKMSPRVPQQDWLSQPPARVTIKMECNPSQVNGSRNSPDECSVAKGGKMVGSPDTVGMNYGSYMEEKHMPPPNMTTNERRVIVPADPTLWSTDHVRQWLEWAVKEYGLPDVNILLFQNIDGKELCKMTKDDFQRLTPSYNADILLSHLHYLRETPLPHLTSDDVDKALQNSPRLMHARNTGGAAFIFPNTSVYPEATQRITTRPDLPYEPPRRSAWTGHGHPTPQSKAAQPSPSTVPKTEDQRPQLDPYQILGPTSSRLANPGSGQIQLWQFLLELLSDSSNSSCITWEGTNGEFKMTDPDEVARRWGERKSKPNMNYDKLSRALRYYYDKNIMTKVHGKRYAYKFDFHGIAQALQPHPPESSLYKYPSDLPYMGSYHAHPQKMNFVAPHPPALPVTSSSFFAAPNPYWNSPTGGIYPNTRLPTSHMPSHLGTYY

ELF1 = ELF1 (UniProt P32519)
ELK4 = target: T2, ELK4 (UniProt P28324-2)
T2 sequence: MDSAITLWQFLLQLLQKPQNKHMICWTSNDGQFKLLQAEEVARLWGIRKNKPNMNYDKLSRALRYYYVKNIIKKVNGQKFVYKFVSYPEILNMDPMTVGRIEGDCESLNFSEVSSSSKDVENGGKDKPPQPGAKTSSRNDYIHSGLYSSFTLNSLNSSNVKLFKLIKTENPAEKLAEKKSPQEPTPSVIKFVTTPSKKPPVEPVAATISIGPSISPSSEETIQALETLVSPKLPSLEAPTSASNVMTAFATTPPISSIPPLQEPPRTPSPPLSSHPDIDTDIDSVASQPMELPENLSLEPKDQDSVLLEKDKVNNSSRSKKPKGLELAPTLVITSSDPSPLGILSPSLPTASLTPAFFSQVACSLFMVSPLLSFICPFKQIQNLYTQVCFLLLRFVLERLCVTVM

ETV4 = target: T3, ETV4 (UniProt P43268)
T3 sequence: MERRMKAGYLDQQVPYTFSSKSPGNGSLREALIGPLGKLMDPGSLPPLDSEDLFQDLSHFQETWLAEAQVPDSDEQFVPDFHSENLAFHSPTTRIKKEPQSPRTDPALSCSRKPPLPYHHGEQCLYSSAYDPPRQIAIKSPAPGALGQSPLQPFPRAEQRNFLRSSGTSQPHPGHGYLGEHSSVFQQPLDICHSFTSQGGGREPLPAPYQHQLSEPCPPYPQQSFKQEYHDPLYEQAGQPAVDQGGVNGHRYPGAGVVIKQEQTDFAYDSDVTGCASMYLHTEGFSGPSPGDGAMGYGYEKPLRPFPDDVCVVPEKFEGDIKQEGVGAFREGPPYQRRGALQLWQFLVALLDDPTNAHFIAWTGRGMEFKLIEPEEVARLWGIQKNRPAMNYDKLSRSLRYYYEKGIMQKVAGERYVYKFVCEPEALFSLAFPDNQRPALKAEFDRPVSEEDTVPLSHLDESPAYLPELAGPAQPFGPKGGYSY

ETV1 = ETV1 (UniProt P50549)
ERF = target: T4, ERF (UniProt P50548)
T4 sequence: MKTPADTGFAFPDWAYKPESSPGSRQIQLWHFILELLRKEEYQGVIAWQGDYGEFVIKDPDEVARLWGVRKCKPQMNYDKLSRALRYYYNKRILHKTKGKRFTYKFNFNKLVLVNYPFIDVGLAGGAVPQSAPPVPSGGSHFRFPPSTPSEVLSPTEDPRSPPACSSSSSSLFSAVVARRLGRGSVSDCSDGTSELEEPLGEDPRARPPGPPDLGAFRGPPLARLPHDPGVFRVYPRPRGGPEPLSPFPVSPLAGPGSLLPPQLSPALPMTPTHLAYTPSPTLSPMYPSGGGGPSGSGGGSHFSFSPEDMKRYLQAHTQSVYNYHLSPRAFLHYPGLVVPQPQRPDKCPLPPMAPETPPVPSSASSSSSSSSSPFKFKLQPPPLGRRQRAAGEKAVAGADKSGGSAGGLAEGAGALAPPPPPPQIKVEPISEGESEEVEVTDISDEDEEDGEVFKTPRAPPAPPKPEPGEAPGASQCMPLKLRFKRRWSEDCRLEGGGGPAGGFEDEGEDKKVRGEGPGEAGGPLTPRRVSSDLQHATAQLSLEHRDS

Sequence | binding signal (ERG) | binding signal (ELF1) | binding signal (ELK4) | binding signal (ETV4) | binding signal (ETV1) | binding signal (ERF)
CAAGGC | 0.898 | 0.873 | 0.85 | 0.831 | 0.82 | 0.935
CGAGGC | 0.688 | 0.661 | 0.67 | 0.596 | 0.736 | 0.709
GGTGTA | 0.87 | 0.8 | 0.87 | 0.844 | 0.834 | 0.891
TGCGAG | 0.948 | 0.903 | 0.855 | 0.854 | 0.981 | 0.968
TCAGAA | 0.927 | 0.942 | 0.829 | 0.908 | 0.876 | 0.925
GCCCAG | 0.745 | 0.723 | 0.724 | 0.751 | 0.755 | 0.724
CGGCGA | 0.732 | 0.744 | 0.702 | 0.731 | 0.753 | 0.724
GCAAGT | 0.841 | 0.812 | 0.757 | 0.828 | 0.776 | 0.87
ACGTCG | 0.608 | 0.636 | 0.55 | 0.609 | 0.688 | 0.636
CAGGCG | 0.297 | 0.249 | 0.248 | 0.249 | 0.263 | 0.274
GCATAT | 0.95 | 0.886 | 1.07 | 0.971 | 0.89 | 0.961
GGCAAA | 0.965 | 0.898 | 0.892 | 0.919 | 0.95 | 0.876
CGCATA | 0.707 | 0.709 | 0.733 | 0.735 | 0.721 | 0.712
TAGGGA | 0.812 | 0.796 | 0.761 | 0.8 | 0.747 | 0.877
TAAGTG | 0.804 | 0.818 | 0.802 | 0.832 | 0.76 | 0.828
GCATGT | 0.727 | 0.775 | 0.753 | 0.809 | 0.782 | 0.837
CGGGGA | 0.437 | 0.44 | 0.416 | 0.457 | 0.441 | 0.435
TCGGTA | 0.597 | 0.66 | 0.631 | 0.593 | 0.619 | 0.614
GCCGGG | 0.398 | 0.376 | 0.402 | 0.397 | 0.42 | 0.377
AGCCAA | 0.882 | 0.933 | 0.883 | 0.881 | 0.884 | 0.95

Sequence | binding signal (ERG) | binding signal (ELF1) | binding signal (ELK4) | binding signal (ETV4) | binding signal (ETV1) | binding signal (ERF)
CAGTTA | 0.802 | 0.734 | 0.833 | 0.736 | 0.751 | 0.837
GAGCAC | 0.737 | 0.718 | 0.758 | 0.739 | 0.693 | 0.789
CGGGAG | 0.227 | 0.187 | 0.169 | 0.195 | 0.206 | 0.202
CGGGGG | 0.5 | 0.461 | 0.487 | 0.466 | 0.517 | 0.531
CGCGGA | 0.95 | 0.915 | 0.846 | 0.845 | 0.929 | 0.884
CCATGA | 0.81 | 0.844 | 1 | 0.884 | 0.817 | 0.915
TACCGT | 0.614 | 0.685 | 0.68 | 0.642 | 0.585 | 0.672
GAACCG | 0.77 | 0.691 | 0.69 | 0.698 | 0.748 | 0.728
GGCACA | 0.878 | 0.815 | 0.807 | 0.848 | 0.792 | 0.803
CACGGT | 0.86 | 0.956 | 0.817 | 0.916 | 0.983 | 0.895
TCGGTC | 0.57 | 0.561 | 0.606 | 0.549 | 0.566 | 0.599
AGAGGG | 0.741 | 0.72 | 0.652 | 0.712 | 0.73 | 0.72
CCGTAG | 0.84 | 0.933 | 0.986 | 0.823 | 0.867 | 0.838
GACGCG | 0.625 | 0.632 | 0.755 | 0.664 | 0.586 | 0.689
AGTCGT | 0.388 | 0.41 | 0.341 | 0.377 | 0.362 | 0.378
CGTGAA | 0.443 | 0.462 | 0.432 | 0.412 | 0.448 | 0.453
GGGCGG | 0.466 | 0.43 | 0.475 | 0.411 | 0.402 | 0.434
GCAGTA | 0.807 | 0.863 | 0.779 | 0.855 | 0.847 | 0.957
ATCGGT | 0.696 | 0.737 | 0.776 | 0.732 | 0.638 | 0.731
AGGTGG | 0.685 | 0.655 | 0.642 | 0.609 | 0.573 | 0.633

Sequence | binding signal (ERG) | binding signal (ELF1) | binding signal (ELK4) | binding signal (ETV4) | binding signal (ETV1) | binding signal (ERF)
TGAGAG | 0.558 | 0.568 | 0.59 | 0.532 | 0.566 | 0.651
GCGGCG | 0.81 | 0.773 | 0.751 | 0.822 | 0.768 | 0.68
CCGAGG | 0.764 | 0.675 | 0.709 | 0.736 | 0.77 | 0.767
GGGTCG | 0.614 | 0.604 | 0.548 | 0.622 | 0.593 | 0.594
CCTGAG | 0.801 | 0.909 | 0.785 | 0.851 | 0.818 | 0.778
GGCGTG | 0.335 | 0.334 | 0.334 | 0.318 | 0.346 | 0.315
ACCGTA | 0.892 | 0.933 | 0.957 | 0.846 | 0.848 | 0.943
GCCAGT | 0.317 | 0.331 | 0.322 | 0.293 | 0.314 | 0.289
GCGAGT | 0.54 | 0.573 | 0.541 | 0.528 | 0.593 | 0.577
GTGCGT | 0.603 | 0.604 | 0.624 | 0.62 | 0.571 | 0.683
CACAGA | 0.796 | 0.916 | 0.982 | 0.86 | 0.828 | 0.877
GGTGCG | 0.585 | 0.569 | 0.642 | 0.525 | 0.526 | 0.563
GGCATC | 0.869 | 0.878 | 0.888 | 0.901 | 0.858 | 0.834
GACACC | 0.934 | 0.929 | 0.886 | 0.899 | 0.869 | 0.97
AGAGTT | 0.761 | 0.772 | 0.718 | 0.767 | 0.804 | 0.773
GCGGCC | 0.811 | 0.874 | 0.928 | 0.767 | 0.865 | 0.81
GCTGGG | 0.759 | 0.856 | 0.911 | 0.852 | 0.726 | 0.802
CGGGAA | 0.762 | 0.679 | 0.75 | 0.74 | 0.751 | 0.661
GGTCAA | 0.922 | 0.867 | 0.941 | 0.897 | 0.843 | 0.915
GTCGAG | 0.442 | 0.416 | 0.421 | 0.473 | 0.473 | 0.485

For convenience, some entries already given.
Sequence | binding signal (ERG) | binding signal (ELF1) | binding signal (ELK4) | binding signal (ETV4) | binding signal (ETV1) | binding signal (ERF)
CCTGAG | 0.801 | 0.909 | 0.785 | 0.851 | 0.818 | 0.778
GGCGTG | 0.335 | 0.334 | 0.334 | 0.318 | 0.346 | 0.315
ACCGTA | 0.892 | 0.933 | 0.957 | 0.846 | 0.848 | 0.943
